Measurements published in article PMC4567572.

Molecular target: OsPYL1 (Oryza sativa L. ssp. Japonica cv. Nipponbare)
Experiment: two-hybrid; full-length OsPYLs and OsPP2Cs in pDEST32 or pDEST22 as baits or preys, yeast strain Y2H gold; growth on SD/-His/-Leu/-Trp with 3-AT (0, 3.0, 5.0 and 10 mM), in the absence or presence of ABA; 4 days at 30 °C

binding: binds
B1: OsPP2C53 (enzyme, UniProt Q6L4R7 1-445)
chain: MEDLALPAAPPAPTLSFTLLAAAAAVAEAMEEALGAALPPLTAPVPAPGDDSACGSPCSVASDCSSVASADFEGFAELGTSLLAGPAVLFDDLTAASVAVAEAAEPRAVGATARSVFAMDCVPLWGLESICGRRPEMEDDYAVVPRFFDLPLWMVAGDAAVDGLDRASFRLPAHFFAVYDGHGGVQVANYCRKRIHAVLTEELRRAEDDACGSDLSGLESKKLWEKAFVDCFSRVDAEVGGNAASGAPPVAPDTVGSTAVVAVVCSSHVIVANCGDSRAVLCRGKQPLPLSLDHKPNREDEYARIEALGGKVIQWNGYRVLGVLAMSRSIGDKYLKPYIIPVPEVTVVARAKDDDCLILASDGLWDVMSNEEVCDAARKRILLWHKKNAATASTSSAQISGDSSDPAAQAAADYLSKLALQKGSKDNITVVVIDLKAHRKFKSKA

These are yes or no findings as the source states them, for the method shown. A result given as binding can be weak or reduced; the word gives no strength.
